Experimental data as given in publication doi:10.1101/495820.
Where a chain is given by its changes, count along the chain named. Numbers in names are those of the source. No constants are given. Whether binding was seen depends on the method and setting. For some assays here: In cells and extracts the contact can be indirect. Some results given as binding are weak or reduced against the parent protein; the word gives no strength. Where a sequence is shown, tags or fusion partners need not be part of it. Each block holds one binder with its values, some of them ahead of it.

How the values were obtained:
[1] = biological target: Smc(3A-hng, K1151C)-HaloTag (B. subtilis) (UniProt P51834); assay: cross-linking
[2] = biological target: Smc(D280C)-HaloTag with the pair of cysteines at the Smc hinge (B. subtilis) (UniProt P51834); assay: cross-linking
[3] = biological target: Smc(3A-hng, EQ, K1151C)-HaloTag (B. subtilis) (UniProt P51834); assay: cross-linking
[4] = biological target: Smc(S152C, R558C, N634C)-HaloTag (B. subtilis) (UniProt P51834); assay: cross-linking
[5] = biological target: DnaN (N114C, V313C)-HaloTag (B. subtilis) (UniProt P05649); assay: cross-linking
[6] = biological target: T1, His-tagged N-terminal fragment of ScpA (ScpA-N) (B. subtilis) (UniProt P35154); assay: co-purification
T1 sequence: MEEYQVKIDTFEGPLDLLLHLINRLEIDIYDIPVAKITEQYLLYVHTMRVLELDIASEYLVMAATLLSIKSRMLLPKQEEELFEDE

[7] = biological target: T1, His-tagged N-terminal fragment of ScpA (ScpA-N) (B. subtilis); assay: SEC

binding [1]: binds
B1: Smc(3A-hng, K1151C)-HaloTag (protein, UniProt P51834 1-1186)
chain: MFLKRLDVIGFKSFAERISVDFVKGVTAVVGPNGSGKSNITDAIRWVLGEQSARSLRGGKMEDIIFAGSDSRKRLNLAEVTLTLDNDDHFLPIDFHEVSVTRRVYRSGESEFLINNQPCRLKDIIDLFMDSGLGKEAFSIISQGKVEEILSSKAEDRRSIFEEAAGVLKYKTRKKKAENKLFETQDNLNRVEDILHELEGQVEPLKIQASIAKDYLEKKKELEHVEIALTAYDIEELHGKWSTLKEKVQMAKEEELAESSAISAKEAKIEDTRDKIQALDESVDELQQVLLVTSEELEKLEGRKEVLKERKKNAVQNQEQLEEAIVQFQQKETVLKEELSKQEAVFETLQAEVKQLRAQVKEKQQALSLHNENVEEKIEQLKSDYFELLNSQASIRNELQLLDDQMSQSAVTLQRLADNNEKHLQERHDISARKAACETEFARIEQEIHSQVGAYRDMQTKYEQKKRQYEKNESALYQAYQYVQQARSKKDMLETMQGDFSGFYQGVKEVLKAKERLGGIRGAVLELISTEQKYETAIEIALGASAQHVVTDDEQSARKAIQYLKQNSFGRATFLPLSVIRDRQLQSRDAETAARHSSFLGVASELVTFDPAYRSVIQNLLGTVLITEDLKGANELAKLLGHRYRIVTLEGDVVNPGGSMTGGAVAAANNSLLGRSRELEDVTKRLAEMEEKTALLEQEVKTLKHSIQDMEKKLADLRETGEGLRLKQQDVKGQLYELQVAEKNINTHLELYDQEKSALSESDEERKVRKRKLEEELSAVSEKMKQLEEDIDRLTKQKQTQSSTKESLSNELTELKIAAAKKEQACKGEEDNLARLKKELTETELALKEAKEDLSFLTSEMSSSTSGEEKLEEAAKHKLNDKTKTIELIALRRDQRIKLQHGLDTYERELKEMKRLYKQKTTLLKDEEVKLGRMEVELDNLLQYLREEYSLSFEGAKEKYQLETDPEEARKRVKLIKLAIEELGTVNLGSIDEFERVNERYKFLSEQKEDLTEAKNTLFQVIEEMDEEMTKRFNDTFVQIRSHFDQVFRSLFGGGRAELRLTDPNDLLHSGVEIIAQPPGKKLQNLNLLSGGERALTAIALLFSILKVRPVPFCVLDEVEAALDEANVFRFAQYLKKYSSDTQFIVITHRCGTMEEADVLYGVTMQESGVSKVISVKLEETKEFVQ

binding [2]: binds
B2: Smc(D280C)-HaloTag with the pair of cysteines at the Smc hinge (protein, UniProt P51834 1-1186)
chain: B1 chain with D280C, R558C, N634C, A666K, A667K, A668K, C1151K

binding [3]: binds
B3: Smc(3A-hng, EQ, K1151C)-HaloTag (protein, UniProt P51834 1-1186)
chain: B1 chain with E1118Q

binding [4]: binds
B4: Smc(S152C, R558C, N634C)-HaloTag (protein, UniProt P51834 1-1186)
chain: B1 chain with S152C, R558C, N634C, A666K, A667K, A668K, C1151K

binding [5]: binds
B5: DnaN (N114C, V313C)-HaloTag (protein, UniProt P05649 1-378)
chain: MKFTIQKDRLVESVQDVLKAVSSRTTIPILTGIKIVASDDGVSFTGSDSDISIESFIPKEEGDKEIVTIEQPGSIVLQARFFSEIVKKLPMATVEIEVQNQYLTIIRSGKAEFCLNGLDADEYPHLPQIEEHHAIQIPTDLLKNLIRQTVFAVSTSETRPILTGVNWKVEQSELLCTATDSHRLALRKAKLDIPEDRSYNVVIPGKSLTELSKILDDNQELVDIVITETQVLFKAKNVLFFSRLLDGNYPDTTSLIPQDSKTEIIVNTKEFLQAIDRASLLAREGRNNVVKLSAKPAESIEISSNSPEIGKVCEAIVADQIEGEELNISFSPKYMLDALKVLEGAEIRVSFTGAMRPFLIRTPNDETIVQLILPVRTY

binding [6]: binds
B6: B. subtilis Smc heads (SmcHd) (domain or fragment, UniProt P51834 1-219; P51834 983-1186)
chain: MFLKRLDVIGFKSFAERISVDFVKGVTAVVGPNGSGKSNITDAIRWVLGEQSARSLRGGKMEDIIFAGSDSRKRLNLAEVTLTLDNDDHFLPIDFHEVSVTRRVYRSGESEFLINNQPCRLKDIIDLFMDSGLGKEAFSIISQGKVEEILSSKAEDRRSIFEEAAGVLKYKTRKKKAENKLFETQDNLNRVEDILHELEGQVEPLKIQASIAKDYLEKKGPGLGTVNLGSIDEFERVNERYKFLSEQKEDLTEAKNTLFQVIEEMDEEMTKRFNDTFVQIRSHFDQVFRSLFGGGRAELRLTDPNDLLHSGVEIIAQPPGKKLQNLNLLSGGERALTAIALLFSILKVRPVPFCVLDEVEAALDEANVFRFAQYLKKYSSDTQFIVITHRKGTMEEADVLYGVTMQESGVSKVISVKLEETKEFVQ

binding [6]: binds
binding [7]: binds
B7: SmcHd(EQ, 3A-hd) (domain or fragment, UniProt P51834 1-219; P51834 983-1186)
chain: B6 chain with K60A, R120A, K122A, E358Q

binding [6]: binds
binding [7]: binds
B8: SmcHd(EQ) (domain or fragment, UniProt P51834 1-219; P51834 983-1186)
chain: B6 chain with E358Q

binding [6]: binds
B9: SmcHd(3A-hd) (domain or fragment, UniProt P51834 1-219; P51834 983-1186)
chain: B6 chain with K60A, R120A, K122A
